# According to patent publication US20170202915A1 (TUFTS UNIVERSITY, published 2017):
# Sequences of proteins named here, by UniProt entry; tags and fusion partners are left off. A change or cut given only in a name is not applied to a line headed by its entry. Residues count along the entry.
# UniProt P49767: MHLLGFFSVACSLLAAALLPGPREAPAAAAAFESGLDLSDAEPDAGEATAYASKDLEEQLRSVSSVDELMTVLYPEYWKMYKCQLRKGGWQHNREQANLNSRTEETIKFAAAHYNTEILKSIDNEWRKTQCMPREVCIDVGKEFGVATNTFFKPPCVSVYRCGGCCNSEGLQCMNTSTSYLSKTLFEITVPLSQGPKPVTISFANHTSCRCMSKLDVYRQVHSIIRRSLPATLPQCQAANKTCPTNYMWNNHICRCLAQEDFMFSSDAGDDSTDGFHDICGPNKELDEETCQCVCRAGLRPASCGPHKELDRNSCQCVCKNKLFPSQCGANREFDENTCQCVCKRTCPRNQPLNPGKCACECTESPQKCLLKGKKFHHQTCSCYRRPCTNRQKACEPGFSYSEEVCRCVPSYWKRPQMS
# UniProt P09382, residues 2-135: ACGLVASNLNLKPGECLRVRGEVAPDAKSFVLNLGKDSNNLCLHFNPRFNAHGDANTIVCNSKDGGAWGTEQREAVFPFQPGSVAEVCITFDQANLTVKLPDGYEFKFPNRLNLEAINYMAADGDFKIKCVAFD
# UniProt P17931, residues 2-250: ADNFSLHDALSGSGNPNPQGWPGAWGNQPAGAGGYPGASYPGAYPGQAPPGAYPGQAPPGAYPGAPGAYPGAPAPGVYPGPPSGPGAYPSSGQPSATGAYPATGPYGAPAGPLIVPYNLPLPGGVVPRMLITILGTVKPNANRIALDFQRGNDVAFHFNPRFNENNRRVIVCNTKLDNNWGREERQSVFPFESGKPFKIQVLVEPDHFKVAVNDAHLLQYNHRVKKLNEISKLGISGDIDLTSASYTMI
# UniProt P47929: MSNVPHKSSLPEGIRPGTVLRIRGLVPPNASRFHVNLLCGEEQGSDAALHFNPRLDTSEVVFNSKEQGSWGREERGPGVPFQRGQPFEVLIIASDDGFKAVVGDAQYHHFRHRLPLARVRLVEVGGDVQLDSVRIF
# B1: recombinant full-length galectin-8 (other, UniProt O00214 1-317, looked up)
# chain: MMLSLNNLQNIIYNPVIPFVGTIPDQLDPGTLIVIRGHVPSDADRFQVDLQNGSSMKPRADVAFHFNPRFKRAGCIVCNTLINEKWGREEITYDTPFKREKSFEIVIMVLKDKFQVAVNGKHTLLYGHRIGPEKIDTLGIYGKVNIHSIGFSFSSDLQSTQASSLELTEISRENVPKSGTPQLRLPFAARLNTPMGPGRTVVVKGEVNANAKSFNVDLLAGKSKDIALHLNPRLNIKAFVRNSFLQESWGEEERNITSFPFSPGMYFEMIIYCDVREFKVAVNGVHSLEYKHRFKELSSIDTLEINGDIHLLEVRSW
# notes: mature; Tandem-repeat lectin with an N-CRD and a C-CRD; also called Gal-8; exogenous Gal-8
# Target: VEGF-C (from primary LECs) (UniProt P49767)
# Assay: galectin-agarose pulldown from primary LECs, western blot (FIG. 21A)
row,binding,Molecule
1,no binding,recombinant galectin-1 (from UniProt P09382 2-135)
2,no binding,recombinant galectin-3 (from UniProt P17931 2-250)
3,no binding,recombinant galectin-7 (from UniProt P47929 1-136)
4,no binding,B1

# Results are given in words; binding and its absence hold for the method and conditions named.
